# Laboratory results from PubChem BioAssay AID743156 (Broad Institute, 2013).
# Inconclusive results, whose numbers are uncertain, are shown with a selection of clear calls. Calls of active or inactive are those of the source.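 The calls were made as follows: active = mean inhibition across replicates of at least 20% with every single replicate also at 20% or more; inconclusive = mean inhibition at least 20% but some replicate falls below 20%; inactive = mean inhibition under 20% and not all replicates reach it.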
# Test system: PglD UDP-4-amino-sugar N-acetyltransferase (Campylobacter jejuni)
# Test: PglD acetyltransferase inhibitors, confirmation, biochemical, DTNB absorbance, single point, cherry-picked samples (AID 743156);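 also: initial rate of CoA release by acetyl transfer from AcCoA to the UDP-4-amino sugar; 0% = median of neutral control wells and 100% = median of positive control wells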
# Details: Purified C. jejuni PglD, DTNB absorbance 412 nm; at 20 µM; stronger effect = higher value
row,Structure (SMILES),inhibition
1,CC1Oc2ccccc2N(CC(=O)N2CCCCC2)C1=O (centres undefined),inconclusive: 13.7%
2,CCOc1ccc(N2CC(C(=O)NCCc3ccc(S(N)(=O)=O)cc3)CC2=O)cc1 (centres undefined),inconclusive: 13%
3,Cc1c(C(=O)O)sc2nc(/C=C/c3cccc(O)c3)[nH]c(=O)c12,active: 78.6%
4,CC(C)(C)NC(=O)COC(=O)c1ccccc1Nc1ccc(SC(F)F)cc1,inconclusive: 15.1%
5,CC(C)Cc1nc(N2CCN(C(=O)c3ccco3)CC2)c(C#N)c2c1CCC2,inconclusive: 14.5%
6,Cn1nnnc1SCCNS(=O)(=O)c1ccccc1,inconclusive: 13.6%
7,Cn1cnnc1SCC(C)(C)NS(=O)(=O)c1ccc(Cl)cc1,inconclusive: 14.7%
8,CCn1c(=O)cc(SCC(=O)N2CCN(c3ccccc3OC)CC2)c2ccccc21,inconclusive: 15%
9,CCn1c(SCc2nc3sc(C(=O)O)c(C)c3c(=O)[nH]2)nc2ccccc21,active: 47.3%
